Results published in patent US11896600B2, “Composition and method of using eicosanoyl-5-hydroxytryptamide for treating neurodegenerative disorders” (Vidya Herbs, Inc., priority 2019, dated 2024).
Structures can show the parent of a compound that is named as a salt.

Test system: brain tissue of scopolamine-induced mice
Assay: Histopathological examination of brain (H&E), healthy neurons in hippocampus
Format: in vivo, Swiss albino mice
Settings: donepezil 3 mg/kg p.o.; vs untreated amnesia mice, p<0.001

Q: For `COc1cc2c(cc1OC)C(=O)C(CC1CCN(Cc3ccccc3)CC1)C2` (stereo not shown) [donepezil, donepezil hydrochloride], which “number of healthy neurons in brain hippocampus region” value is on record?
A: significantly improved the healthy neurons
